Article PMC8051604
These are yes or no findings as the source states them, for the method shown. In cells and extracts the contact can be indirect. Binding calls can cover weak binding; strength is not graded here. Tags and fused reporters may be left off the sequences shown.

Molecular target: CitCHIL1, split-luciferase fusion (LCI) (Citrus reticulata cv. Suavissima (Ougan))
Experiment: split reporter; firefly luciferase complementation imaging (LCI); nLUC and cLUC constructs co-infiltrated into N. benthamiana leaves; LUC activity 2 days after infiltration, 0.2 mM luciferin, NightSHADE LB 985

binding: binds
B1: AtCHS (Arabidopsis chalcone synthase, At5g13930), split-luciferase fusion (LCI) (enzyme, UniProt P13114 1-395)
chain: MVMAGASSLDEIRQAQRADGPAGILAIGTANPENHVLQAEYPDYYFRITNSEHMTDLKEKFKRMCDKSTIRKRHMHLTEEFLKENPHMCAYMAPSLDTRQDIVVVEVPKLGKEAAVKAIKEWGQPKSKITHVVFCTTSGVDMPGADYQLTKLLGLRPSVKRLMMYQQGCFAGGTVLRIAKDLAENNRGARVLVVCSEITAVTFRGPSDTHLDSLVGQALFSDGAAALIVGSDPDTSVGEKPIFEMVSAAQTILPDSDGAIDGHLREVGLTFHLLKDVPGLISKNIVKSLDEAFKPLGISDWNSLFWIAHPGGPAILDQVEIKLGLKEEKMRATRHVLSEYGNMSSACVLFILDEMRRKSAKDGVATTGEGLEWGVLFGFGPGLTVETVVLHSVPL
